Results are given in words; binding and its absence hold for the method and conditions named. For some assays here: Binding seen in cells or lysates may run through a third protein. Some entries that bind do so weakly or less than the wild type.
Assays:
[1] = target: huBUB1 protein (plasmid p337-50) (human) (UniProt O43683); assay: co-translation in vitro, anti-FLAG co-immunoprecipitation, SDS-PAGE autoradiography
[2] = target: huBUB1 protein (plasmid p337-50) (human) (UniProt O43683); assay: co-immunoprecipitation of 35S-labeled co-translated proteins with M1 anti-FLAG agarose
[3] = target: huBUB1 protein (plasmid p337-50) (human) (UniProt O43683); assay: co-translation in vitro, anti-FLAG co-immunoprecipitation
[4] = target: FLAG-huBUB3 protein fusion (plasmid p322-1) (human) (UniProt O43684); assay: retention by HA-huBUB1 before kinase reactions; format not described
[5] = target: huBUB3 protein (untagged; expression plasmid p291-2, ~2.7 kb variant) (human) (UniProt O43684); assay: as above
[6] = target: huBUB1 protein (plasmid p337-50) (human) (UniProt O43683); assay: co-immunoprecipitation of in vitro translated proteins
HA-huBUB1 (human) = HA-huBUB1 (human) (UniProt O43683); assay: co-translation with HA-huBUB1; format not described
[7] = target: huBUB1 protein (plasmid p337-50) (human) (UniProt O43683); assay: co-immunoprecipitation (refers to Example 10)

Sequences of proteins named here, by UniProt entry; tags and fusion partners are left off. A change or cut given only in a name is not applied to a line headed by its entry.
UniProt O43683: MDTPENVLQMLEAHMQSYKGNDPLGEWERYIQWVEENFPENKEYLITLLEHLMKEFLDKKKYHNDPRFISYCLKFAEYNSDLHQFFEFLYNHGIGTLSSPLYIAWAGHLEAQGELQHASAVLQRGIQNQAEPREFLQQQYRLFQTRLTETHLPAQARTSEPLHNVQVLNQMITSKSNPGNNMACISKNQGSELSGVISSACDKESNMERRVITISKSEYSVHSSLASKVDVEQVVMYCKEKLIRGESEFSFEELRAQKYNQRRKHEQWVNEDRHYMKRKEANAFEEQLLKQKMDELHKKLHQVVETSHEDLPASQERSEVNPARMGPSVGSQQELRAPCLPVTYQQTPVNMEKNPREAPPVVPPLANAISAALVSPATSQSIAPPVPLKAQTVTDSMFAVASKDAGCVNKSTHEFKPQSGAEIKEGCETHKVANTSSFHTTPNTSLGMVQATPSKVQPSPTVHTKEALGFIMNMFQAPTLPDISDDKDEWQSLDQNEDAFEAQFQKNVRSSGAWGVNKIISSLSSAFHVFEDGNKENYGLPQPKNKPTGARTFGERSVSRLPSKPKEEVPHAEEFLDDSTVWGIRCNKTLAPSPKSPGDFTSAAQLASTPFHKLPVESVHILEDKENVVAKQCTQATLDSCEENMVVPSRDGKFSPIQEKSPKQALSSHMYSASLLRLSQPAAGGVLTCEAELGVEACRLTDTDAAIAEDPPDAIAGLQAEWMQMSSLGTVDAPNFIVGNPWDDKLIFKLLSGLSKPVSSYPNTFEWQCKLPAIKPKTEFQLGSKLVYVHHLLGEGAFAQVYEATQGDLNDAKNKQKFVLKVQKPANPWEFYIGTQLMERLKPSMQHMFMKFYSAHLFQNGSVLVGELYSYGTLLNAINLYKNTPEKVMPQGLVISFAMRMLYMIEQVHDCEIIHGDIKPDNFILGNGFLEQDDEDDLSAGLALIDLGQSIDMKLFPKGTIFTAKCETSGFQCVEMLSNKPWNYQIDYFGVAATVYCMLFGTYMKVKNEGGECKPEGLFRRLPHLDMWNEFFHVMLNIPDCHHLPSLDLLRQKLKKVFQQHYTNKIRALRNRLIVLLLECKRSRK
UniProt O43684: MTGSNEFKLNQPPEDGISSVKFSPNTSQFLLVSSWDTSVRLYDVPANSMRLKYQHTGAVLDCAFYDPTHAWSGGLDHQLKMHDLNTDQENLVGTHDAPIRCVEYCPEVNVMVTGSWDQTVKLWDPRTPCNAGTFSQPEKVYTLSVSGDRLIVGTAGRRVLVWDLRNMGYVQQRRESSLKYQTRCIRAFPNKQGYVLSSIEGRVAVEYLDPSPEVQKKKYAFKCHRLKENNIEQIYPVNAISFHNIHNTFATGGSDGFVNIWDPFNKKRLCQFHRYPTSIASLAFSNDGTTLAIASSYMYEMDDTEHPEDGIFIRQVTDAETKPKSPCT

FLAG-huBUB3 protein fusion (plasmid p322-1) (from UniProt O43684 2-328)
binding [1]: binds
binding [2]: binds
binding [3]: binds

HA-huBUB1 (from UniProt O43683 1-1085) (enzyme)
binding [4]: binds
binding [5]: binds

huBUB3 protein (untagged; expression plasmid p291-2, ~2.7 kb variant) (from UniProt O43684 1-328)
binding [6]: binds
binding (HA-huBUB1 (human)): binds
binding [7]: binds

Source: patent US20020160403A1
